# Results reported in article PMC3097235.
# These are yes or no findings as the source states them, for the method shown. Binding seen in cells or lysates may run through a third protein. Some binding calls cover weakened binding; strength is not graded here.
# T1: calnexin (human (endogenous in HEK 293)) (UniProt P27824)
# T1 sequence: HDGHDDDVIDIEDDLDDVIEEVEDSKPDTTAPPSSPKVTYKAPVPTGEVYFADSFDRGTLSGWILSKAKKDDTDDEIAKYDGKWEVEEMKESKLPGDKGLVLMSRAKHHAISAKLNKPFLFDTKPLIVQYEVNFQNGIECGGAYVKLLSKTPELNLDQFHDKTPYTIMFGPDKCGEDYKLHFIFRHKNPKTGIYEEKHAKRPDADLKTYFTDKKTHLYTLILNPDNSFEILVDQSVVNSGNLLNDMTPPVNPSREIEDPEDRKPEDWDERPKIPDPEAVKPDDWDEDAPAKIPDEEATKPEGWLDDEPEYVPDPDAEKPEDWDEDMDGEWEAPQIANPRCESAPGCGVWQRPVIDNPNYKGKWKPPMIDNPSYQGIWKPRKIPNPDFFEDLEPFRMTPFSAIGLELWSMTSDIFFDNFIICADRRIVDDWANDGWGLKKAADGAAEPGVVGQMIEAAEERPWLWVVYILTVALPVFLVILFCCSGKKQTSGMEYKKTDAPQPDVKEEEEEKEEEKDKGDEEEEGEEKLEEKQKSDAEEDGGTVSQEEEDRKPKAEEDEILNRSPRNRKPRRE
# What was measured:
# [1] = target: T1, calnexin (human (endogenous in HEK 293)); assay: co-IP; HEK 293 cells transfected with tyrosinase constructs, pulsed 20 min with 35S Met/Cys, chased 0, 0.5, 1, 2 h; 2% CHAPS lysates precipitated with anti-calnexin or anti-calreticulin, eluted with 1% SDS, re-precipitated with T311 anti-tyrosinase; SDS-PAGE, autoradiography
# [2] = target: calreticulin (human (endogenous in HEK 293)) (UniProt P27797); assay: as above
binding [1],binding [2],Binder
binds,binds,"wild type human tyrosinase (enzyme, UniProt P14679 19-529) HFPRACVSSKNLMEKECCPPWSGDRSPCGQLSGRGSCQNILLSNAPLGPQFPFTGVDDRESWPSVFYNRTCQCSGNFMGFNCGNCKFGFWGPNCTERRLLVRRNIFDLSAPEKDKFFAYLTLAKHTISSDYVIPIGTYGQMKNGSTPMFNDINIYDLFVWMHYYVSMDALLGGSEIWRDIDFAHEAPAFLPWHRLFLLRWEQEIQKLTGDENFTIPYWDWRDAEKCDICTDEYMGGQHPTNPNLLSPASFFSSWQIVCSRLEEYNSHQSLCNGTPEGPLRRNPGNHDKSRTPRLPSSADVEFCLSLTQYESGSMDKAANFSFRNTLEGFASPLTGIADASQSSMHNALHIYMNGTMSQVQGSANDPIFLLHHAFVDSIFEQWLRRHRPLQEVYPEANAPIGHNRESYMVPFIPLYRNGDFFISSKDLGYDYSYLQDSDPDSFQDYIKSYLEQASRIWSWLLGAAMVGAVLTALLAGLVSLLCRHKRKQLPEEKQPLLMEKEDYHSLYQSHL"
binds,binds,"human tyrosinase N-glycosylation mutant Δ5 (N290Q) (enzyme, UniProt P14679 19-529) HFPRACVSSKNLMEKECCPPWSGDRSPCGQLSGRGSCQNILLSNAPLGPQFPFTGVDDRESWPSVFYNRTCQCSGNFMGFNCGNCKFGFWGPNCTERRLLVRRNIFDLSAPEKDKFFAYLTLAKHTISSDYVIPIGTYGQMKNGSTPMFNDINIYDLFVWMHYYVSMDALLGGSEIWRDIDFAHEAPAFLPWHRLFLLRWEQEIQKLTGDENFTIPYWDWRDAEKCDICTDEYMGGQHPTNPNLLSPASFFSSWQIVCSRLEEYNSHQSLCQGTPEGPLRRNPGNHDKSRTPRLPSSADVEFCLSLTQYESGSMDKAANFSFRNTLEGFASPLTGIADASQSSMHNALHIYMNGTMSQVQGSANDPIFLLHHAFVDSIFEQWLRRHRPLQEVYPEANAPIGHNRESYMVPFIPLYRNGDFFISSKDLGYDYSYLQDSDPDSFQDYIKSYLEQASRIWSWLLGAAMVGAVLTALLAGLVSLLCRHKRKQLPEEKQPLLMEKEDYHSLYQSHL"
binds,–,"human tyrosinase N-glycosylation mutant Δ6 (N337Q) (enzyme, UniProt P14679 19-529) HFPRACVSSKNLMEKECCPPWSGDRSPCGQLSGRGSCQNILLSNAPLGPQFPFTGVDDRESWPSVFYNRTCQCSGNFMGFNCGNCKFGFWGPNCTERRLLVRRNIFDLSAPEKDKFFAYLTLAKHTISSDYVIPIGTYGQMKNGSTPMFNDINIYDLFVWMHYYVSMDALLGGSEIWRDIDFAHEAPAFLPWHRLFLLRWEQEIQKLTGDENFTIPYWDWRDAEKCDICTDEYMGGQHPTNPNLLSPASFFSSWQIVCSRLEEYNSHQSLCNGTPEGPLRRNPGNHDKSRTPRLPSSADVEFCLSLTQYESGSMDKAAQFSFRNTLEGFASPLTGIADASQSSMHNALHIYMNGTMSQVQGSANDPIFLLHHAFVDSIFEQWLRRHRPLQEVYPEANAPIGHNRESYMVPFIPLYRNGDFFISSKDLGYDYSYLQDSDPDSFQDYIKSYLEQASRIWSWLLGAAMVGAVLTALLAGLVSLLCRHKRKQLPEEKQPLLMEKEDYHSLYQSHL"
binds,–,"human tyrosinase triple N-glycosylation mutant Δ(1,2,3) (N86-N111-N161) (enzyme, UniProt P14679 19-529) HFPRACVSSKNLMEKECCPPWSGDRSPCGQLSGRGSCQNILLSNAPLGPQFPFTGVDDRESWPSVFYQRTCQCSGNFMGFNCGNCKFGFWGPQCTERRLLVRRNIFDLSAPEKDKFFAYLTLAKHTISSDYVIPIGTYGQMKQGSTPMFNDINIYDLFVWMHYYVSMDALLGGSEIWRDIDFAHEAPAFLPWHRLFLLRWEQEIQKLTGDENFTIPYWDWRDAEKCDICTDEYMGGQHPTNPNLLSPASFFSSWQIVCSRLEEYNSHQSLCNGTPEGPLRRNPGNHDKSRTPRLPSSADVEFCLSLTQYESGSMDKAANFSFRNTLEGFASPLTGIADASQSSMHNALHIYMNGTMSQVQGSANDPIFLLHHAFVDSIFEQWLRRHRPLQEVYPEANAPIGHNRESYMVPFIPLYRNGDFFISSKDLGYDYSYLQDSDPDSFQDYIKSYLEQASRIWSWLLGAAMVGAVLTALLAGLVSLLCRHKRKQLPEEKQPLLMEKEDYHSLYQSHL"
binds,binds,"human tyrosinase N-glycosylation mutant Δ7 (N371Q) (enzyme, UniProt P14679 19-529) HFPRACVSSKNLMEKECCPPWSGDRSPCGQLSGRGSCQNILLSNAPLGPQFPFTGVDDRESWPSVFYNRTCQCSGNFMGFNCGNCKFGFWGPNCTERRLLVRRNIFDLSAPEKDKFFAYLTLAKHTISSDYVIPIGTYGQMKNGSTPMFNDINIYDLFVWMHYYVSMDALLGGSEIWRDIDFAHEAPAFLPWHRLFLLRWEQEIQKLTGDENFTIPYWDWRDAEKCDICTDEYMGGQHPTNPNLLSPASFFSSWQIVCSRLEEYNSHQSLCNGTPEGPLRRNPGNHDKSRTPRLPSSADVEFCLSLTQYESGSMDKAANFSFRNTLEGFASPLTGIADASQSSMHNALHIYMQGTMSQVQGSANDPIFLLHHAFVDSIFEQWLRRHRPLQEVYPEANAPIGHNRESYMVPFIPLYRNGDFFISSKDLGYDYSYLQDSDPDSFQDYIKSYLEQASRIWSWLLGAAMVGAVLTALLAGLVSLLCRHKRKQLPEEKQPLLMEKEDYHSLYQSHL"
binds,binds,"human tyrosinase N-glycosylation mutant Δ2 (N111Q) (enzyme, UniProt P14679 19-529) HFPRACVSSKNLMEKECCPPWSGDRSPCGQLSGRGSCQNILLSNAPLGPQFPFTGVDDRESWPSVFYNRTCQCSGNFMGFNCGNCKFGFWGPQCTERRLLVRRNIFDLSAPEKDKFFAYLTLAKHTISSDYVIPIGTYGQMKNGSTPMFNDINIYDLFVWMHYYVSMDALLGGSEIWRDIDFAHEAPAFLPWHRLFLLRWEQEIQKLTGDENFTIPYWDWRDAEKCDICTDEYMGGQHPTNPNLLSPASFFSSWQIVCSRLEEYNSHQSLCNGTPEGPLRRNPGNHDKSRTPRLPSSADVEFCLSLTQYESGSMDKAANFSFRNTLEGFASPLTGIADASQSSMHNALHIYMNGTMSQVQGSANDPIFLLHHAFVDSIFEQWLRRHRPLQEVYPEANAPIGHNRESYMVPFIPLYRNGDFFISSKDLGYDYSYLQDSDPDSFQDYIKSYLEQASRIWSWLLGAAMVGAVLTALLAGLVSLLCRHKRKQLPEEKQPLLMEKEDYHSLYQSHL"
binds,binds,"human tyrosinase triple N-glycosylation mutant Δ(5,6,7) (N290-N337-N371) (enzyme, UniProt P14679 19-529) HFPRACVSSKNLMEKECCPPWSGDRSPCGQLSGRGSCQNILLSNAPLGPQFPFTGVDDRESWPSVFYNRTCQCSGNFMGFNCGNCKFGFWGPNCTERRLLVRRNIFDLSAPEKDKFFAYLTLAKHTISSDYVIPIGTYGQMKNGSTPMFNDINIYDLFVWMHYYVSMDALLGGSEIWRDIDFAHEAPAFLPWHRLFLLRWEQEIQKLTGDENFTIPYWDWRDAEKCDICTDEYMGGQHPTNPNLLSPASFFSSWQIVCSRLEEYNSHQSLCQGTPEGPLRRNPGNHDKSRTPRLPSSADVEFCLSLTQYESGSMDKAAQFSFRNTLEGFASPLTGIADASQSSMHNALHIYMQGTMSQVQGSANDPIFLLHHAFVDSIFEQWLRRHRPLQEVYPEANAPIGHNRESYMVPFIPLYRNGDFFISSKDLGYDYSYLQDSDPDSFQDYIKSYLEQASRIWSWLLGAAMVGAVLTALLAGLVSLLCRHKRKQLPEEKQPLLMEKEDYHSLYQSHL"
binds,binds weakly,"human tyrosinase N-glycosylation mutant Δ4 (N230Q) (enzyme, UniProt P14679 19-529) HFPRACVSSKNLMEKECCPPWSGDRSPCGQLSGRGSCQNILLSNAPLGPQFPFTGVDDRESWPSVFYNRTCQCSGNFMGFNCGNCKFGFWGPNCTERRLLVRRNIFDLSAPEKDKFFAYLTLAKHTISSDYVIPIGTYGQMKNGSTPMFNDINIYDLFVWMHYYVSMDALLGGSEIWRDIDFAHEAPAFLPWHRLFLLRWEQEIQKLTGDEQFTIPYWDWRDAEKCDICTDEYMGGQHPTNPNLLSPASFFSSWQIVCSRLEEYNSHQSLCNGTPEGPLRRNPGNHDKSRTPRLPSSADVEFCLSLTQYESGSMDKAANFSFRNTLEGFASPLTGIADASQSSMHNALHIYMNGTMSQVQGSANDPIFLLHHAFVDSIFEQWLRRHRPLQEVYPEANAPIGHNRESYMVPFIPLYRNGDFFISSKDLGYDYSYLQDSDPDSFQDYIKSYLEQASRIWSWLLGAAMVGAVLTALLAGLVSLLCRHKRKQLPEEKQPLLMEKEDYHSLYQSHL"
binds,–,"human tyrosinase N-glycosylation mutant Δ1 (N86Q) (enzyme, UniProt P14679 19-529) HFPRACVSSKNLMEKECCPPWSGDRSPCGQLSGRGSCQNILLSNAPLGPQFPFTGVDDRESWPSVFYQRTCQCSGNFMGFNCGNCKFGFWGPNCTERRLLVRRNIFDLSAPEKDKFFAYLTLAKHTISSDYVIPIGTYGQMKNGSTPMFNDINIYDLFVWMHYYVSMDALLGGSEIWRDIDFAHEAPAFLPWHRLFLLRWEQEIQKLTGDENFTIPYWDWRDAEKCDICTDEYMGGQHPTNPNLLSPASFFSSWQIVCSRLEEYNSHQSLCNGTPEGPLRRNPGNHDKSRTPRLPSSADVEFCLSLTQYESGSMDKAANFSFRNTLEGFASPLTGIADASQSSMHNALHIYMNGTMSQVQGSANDPIFLLHHAFVDSIFEQWLRRHRPLQEVYPEANAPIGHNRESYMVPFIPLYRNGDFFISSKDLGYDYSYLQDSDPDSFQDYIKSYLEQASRIWSWLLGAAMVGAVLTALLAGLVSLLCRHKRKQLPEEKQPLLMEKEDYHSLYQSHL"
